Patent US20190062414A1 (PHILOGEN S P A, published 2019)
These are yes or no findings as the source states them, for the method shown. Some binding calls cover weakened binding; strength is not graded here.

Columns and labels:
[1] = target: T1, BCD domains of murine tenascin-C (murine, UniProt Q80YX1 1349-1620, limits assumed); assay: SPR (Biacore), BCD domains of murine tenascin-C on CM5 chip
T1 construct: domain: BCD domains; Coated on a CM5 chip; also called domain BCD of murine Tenascin-C
T1 sequence (looked up): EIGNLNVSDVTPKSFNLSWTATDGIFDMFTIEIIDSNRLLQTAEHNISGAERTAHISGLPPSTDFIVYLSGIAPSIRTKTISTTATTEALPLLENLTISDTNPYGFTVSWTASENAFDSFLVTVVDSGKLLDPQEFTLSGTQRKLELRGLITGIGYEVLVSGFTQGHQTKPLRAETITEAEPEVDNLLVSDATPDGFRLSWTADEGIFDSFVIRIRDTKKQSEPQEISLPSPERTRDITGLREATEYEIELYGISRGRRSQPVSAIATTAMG

[2] = target: T1, BCD domains of murine tenascin-C; assay: Biacore (SPR)

binding [1]: binds
binding [2]: binds
B1: scFv(CPR01) (scFv)
scFv: EVQLLESGGGLVQPGGSLRLSCAASGFTFSSYAMSWVRQAPGKGLEWVSAIKARGGLTYYADSVKGRFTISRDNSKNTLYLQMNSLRAEDTAVYYCAKGGAPFDYWGQGTLVTVSSGGGGSGGGGSGGGGSSELTQDPAVSVALGQTVRITCQGDSLRSYYASWYQQKPGQAPVLVIYGKNNRPSGIPDRFSGSSSGNTASLTITGAQAEDEADYYCNSSPLNRLAVVFGGGTKLTVLG
notes: Expressed in CHO.S cells as scFv
